Results published in US20140294731A1.
Results are given in words; binding and its absence hold for the method and conditions named. Some results given as binding are weak or reduced against the parent protein; the word gives no strength.

By UniProt entry, the sequences of proteins in these tests, tags left out. Where a name states a change or a piece, a line headed by the entry shows the natural chain unless it says otherwise.
UniProt P10636: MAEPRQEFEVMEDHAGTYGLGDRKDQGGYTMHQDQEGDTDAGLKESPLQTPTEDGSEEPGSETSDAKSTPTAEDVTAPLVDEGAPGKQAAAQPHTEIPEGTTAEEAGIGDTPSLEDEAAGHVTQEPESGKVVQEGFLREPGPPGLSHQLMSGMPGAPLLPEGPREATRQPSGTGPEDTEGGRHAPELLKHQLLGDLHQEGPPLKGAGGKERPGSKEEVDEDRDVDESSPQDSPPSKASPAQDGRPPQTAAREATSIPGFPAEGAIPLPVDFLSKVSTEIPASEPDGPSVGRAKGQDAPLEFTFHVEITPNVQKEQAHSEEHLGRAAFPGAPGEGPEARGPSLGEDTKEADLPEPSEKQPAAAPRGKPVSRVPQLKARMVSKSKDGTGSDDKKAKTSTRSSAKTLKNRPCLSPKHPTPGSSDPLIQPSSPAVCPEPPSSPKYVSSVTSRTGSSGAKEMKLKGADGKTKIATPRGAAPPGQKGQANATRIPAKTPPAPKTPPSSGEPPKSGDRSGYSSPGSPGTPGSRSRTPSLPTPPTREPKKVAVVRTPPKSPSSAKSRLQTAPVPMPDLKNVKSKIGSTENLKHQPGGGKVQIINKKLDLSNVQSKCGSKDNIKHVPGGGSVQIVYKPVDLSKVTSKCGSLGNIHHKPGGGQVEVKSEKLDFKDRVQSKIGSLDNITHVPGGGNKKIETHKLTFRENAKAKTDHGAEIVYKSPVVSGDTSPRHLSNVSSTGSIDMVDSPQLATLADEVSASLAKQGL

Legend:
[1] = target: full-length Tau in denatured brain homogenates from Tau transgenic mice (hTau P301L, 441 aa) (human) (UniProt P10636); experiment: Western blot of Tau transgenic mouse brain homogenates; grade
[2] = target: Tau tangles in brain sections from Tau transgenic mice (hTau P301L, longest isoform 441 aa) (human) (UniProt P10636); experiment: TAUPIR immunohistochemistry, biGT mouse brain sections
[3] = target: Tau tangles in brain sections from Tau transgenic mice (hTau P301L, longest isoform 441 aa) (human) (UniProt P10636); experiment: TAUPIR immunohistochemistry on Tau transgenic mouse brain sections; grade (+++ Great binding)
[4] = target: full-length Tau in denatured brain homogenates from Tau transgenic mice (hTau P301L, 441 aa) (human) (UniProt P10636); experiment: Western blot of Tau transgenic mouse brain homogenates
[5] = target: Tau tangles in brain sections from Tau transgenic mice (hTau P301L, longest isoform 441 aa) (human) (UniProt P10636); experiment: TAUPIR immunohistochemistry on Tau transgenic mouse brain sections; grade (++ Very good binding)

Measured: binding

B1: ACI-35-2A1-Ab1 (antibody, IgG2b, V domains shown)
VH: EVQLQQSGPELVKPGASVKISCKASGYTFTDYYMNWVKQSHGKSLEWIGDINPNNGGTSYNQKFKGKATLTVDKSSSTAYMELRSLTSEDSAVYYCVREGRFAYWGHGTLVTVSA
VL: DIVMTQAAPSVPVTPGESVSISCRSSKSLLHSNGNTYLYWFLQRPGQSPQLLIHRMSNLASGVPDRFSGSGSGTAFTLRISRVEAEDVGVYYCMQHLKSPYTFGGGTKLEIK
binds: [1] | [2] | [3] | [4]

B2: ACI-35-2G5-Ab2 (antibody, IgG2b, V domains shown)
VH: EVQLQQSGPELVKPGASVKISCKASGFTFTDYYMNWVKQSHGKSLEWIGDINPNNGGTSYHQKFKGKATLTVDKSSSTAYMELRSLTSEDSAVYYCVREGRFAYWGQGTLVTVSA
VL: DIVMTQSQKFMSTSVGDRVSVTCKASQNVGTNVAWYQQKPGQSPKALIYSASYRYSGVPDRFTGSGSGTDFTLTISNVQSEDLAEYFCQQYNSYPYTFGGGTKLEIK
binds: [1] | [2] | [4] | [5]

B3: ACI-35-2G5-Ab3 (antibody, IgG2b, V domains shown)
VH: EVQLQQSGPELVKPGASVKISCKASGFTFTDYYMNWVKQSHGKSLEWIGDINPNNGGTSYHQKFKGKATLTVDKSSSTAYMELRSLTSEDSAVYYCVREGRFAYWGQGTLVTVSA
VL: DIVMTQSQKFMSTSVGDRVSVTCKASQNVGTNVAWYQQKPGQSPKALIYSASYRYSGVPDRFTGSGSGTDFTLTISNVQSEDLAEYFCQQYNSYPYTFGGGTKLEIK
binds: [1] | [2] | [4] | [5]
